# From the supplement of paper PMC8728848
# Some of the results follow.
# B1: Awp1 (Candida glabrata) (protein)
# chain: MSLITIFAFLIKATLVLSLDILTPTTLTGDQTFNEDVSVVSSLTLNDGSQYLFNNLLQIAPSSASVTANALAAVSVFTFSLPPSSSLSNSGTLIISNSNTGPSTEQHIVITPNVMANTGTITLSLAHTNTDSSSTLIIDPVTFYNTGTINYESIGSETNDPSLTGNILSIGSSGRTLQNLGTINLNAANSYYLLGTITENSGSINVQKGFLYVNALDFIGNTINLSTTTALAFISPVSQVVRVRGVFFGNIIASVGSSGTFSYNTQTGILTVTTNGVYSYDIGCGYNPALMSGQQETLSFQGNPYDTFLVLVNQPIPSDLTCAAVSSSITPSSSVEPSSSVVPSSSVEPSSSVEPSSSVEPSSSVEPSSSVEPSSSVEPSSSVEPSSSVEPSSSVEPSSSVEPSSSVEPSSSVEPSSSVEPSSSVEPSSSVEPSSSVEPSSSVEPSSSVEPSSSVEPSSLIVPSSSVEPSSSVLPSSSVVPSSSVEPSTPPIPSSSVEPSSSVVPSSPAVPSSSVEPSTPPIPSSSVVSASVFDTSSTLPSSPSVPPSSVSPSTISTPSSSAAPSSFCPTCVSSGTPPAPSSSAIVPTSSAGGGNGGDNREPGAAGQPGAAGQPGAAGQPGAAGQPGAAGQPGAAGQPGAAGQPGAAGQPGAAGQPGAAGQPGAGFGVGSEQPTPGAGAGSGSADGNQSGTGSGTGNGQQGSGQAGSGQAGSGQEGSGQAGSGQAGSGQAGSGQAGSGQAGLDNTASGQSEGGQASAMDGDQSGRDGQSNSGSLLQPNAQQGTGSGTGSDIGADQASGESPGQIGDAQPGSGTDQSSGRHSLAAEARTSQSHSLAADARTRSTTRQTSVIAPDTAPGTASGTAPGTAPGTAVVTTFHGCGTVNHKGMINILLALALLVLL
# What was measured:
# Assay in all cases: glycan array binding signal (z-score within array); higher = stronger binding
# Details in all cases: glycan notation: IUPAC condensed, linker removed
# [1] = biological target: Neu5Ac(a2-3)Gal(b1-4)GlcNAc(b1-6)GalNAc
# Procedure, shortened: (§1)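 From the Consortium for Functional Glycomics database, 3228 arrays were curated, keeping only those whose protein sequence was available. Binding is given as a within-array Z-score averaged across arrays sharing a protein sequence and across linkers. Negative Z-scores can be read as non-binding.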
# [2] = biological target: Neu5Ac(a2-3)Gal(b1-4)GlcNAc(b1-6)[Gal(b1-3)]GalNAc
# Procedure, shortened: as §1
# [3] = biological target: Neu5Ac(a2-3)Gal(b1-4)GlcNAc(b1-6)[Neu5Ac(a2-3)Gal(b1-3)]GalNAc
# Procedure, shortened: as §1
# [4] = biological target: Neu5Ac(a2-3)Gal(b1-4)GlcNAc6S
# Procedure, shortened: as §1
# [5] = biological target: Neu5Ac(a2-3)Gal(b1-4)[Fuc(a1-3)]GlcNAc
# Procedure, shortened: as §1
# [6] = biological target: Neu5Ac(a2-3)Gal(b1-4)[Fuc(a1-3)]GlcNAc(b1-2)Man
# Procedure, shortened: as §1
# [7] = biological target: Neu5Ac(a2-3)Gal(b1-4)[Fuc(a1-3)]GlcNAc(b1-3)Gal
# Procedure, shortened: as §1
# [8] = biological target: Neu5Ac(a2-3)Gal(b1-4)[Fuc(a1-3)]GlcNAc(b1-3)Gal(b1-4)GlcNAc
# Procedure, shortened: as §1
# [9] = biological target: Neu5Ac(a2-3)Gal(b1-4)[Fuc(a1-3)]GlcNAc(b1-3)Gal(b1-4)[Fuc(a1-3)]GlcNAc(b1-3)Gal(b1-4)[Fuc(a1-3)]GlcNAc
# Procedure, shortened: as §1
# [10] = biological target: Neu5Ac(a2-3)Gal(b1-4)[Fuc(a1-3)]GlcNAc(b1-3)GalNAc
# Procedure, shortened: as §1
# [11] = biological target: Neu5Ac(a2-3)Gal(b1-4)[Fuc(a1-3)]GlcNAc(b1-6)[Gal(b1-3)]GalNAc
# Procedure, shortened: as §1
# [12] = biological target: Neu5Ac(a2-3)Gal(b1-4)[Fuc(a1-3)]GlcNAc(b1-6)[Neu5Ac(a2-3)Gal(b1-3)]GalNAc
# Procedure, shortened: as §1
# [13] = biological target: Neu5Ac(a2-3)Gal(b1-4)[Fuc(a1-3)]GlcNAc6S
# Procedure, shortened: as §1
# [14] = biological target: Neu5Ac(a2-3)Gal6S(b1-4)GlcNAc
# Procedure, shortened: as §1
# [15] = biological target: Neu5Ac(a2-3)Gal6S(b1-4)[Fuc(a1-3)]GlcNAc
# Procedure, shortened: as §1
# Neu5Ac(a2-3)GalNAc = biological target: Neu5Ac(a2-3)GalNAc
# Procedure, shortened: as §1
# [16] = biological target: Neu5Ac(a2-3)GalNAc(b1-4)GlcNAc
# Procedure, shortened: as §1
# [17] = biological target: Neu5Ac(a2-3)[GalNAc(b1-4)]Gal(b1-4)Glc
# Procedure, shortened: as §1
# [18] = biological target: Neu5Ac(a2-3)[GalNAc(b1-4)]Gal(b1-4)GlcNAc
# Procedure, shortened: as §1
# [19] = biological target: Neu5Ac(a2-3)[GalNAc(b1-4)]Gal(b1-4)GlcNAc(b1-3)GalNAc
# Procedure, shortened: as §1
# [20] = biological target: Neu5Ac(a2-3)[Neu5Ac(a2-6)]GalNAc
# Procedure, shortened: as §1
# Neu5Ac(a2-6)Gal = biological target: Neu5Ac(a2-6)Gal
# Procedure, shortened: as §1
# [21] = biological target: Neu5Ac(a2-6)Gal(b1-3)GlcNAc(b1-3)[Gal(b1-4)GlcNAc(b1-6)]Gal(b1-4)Glc
# Procedure, shortened: as §1
# Neu5Ac(a2-6)Gal(b1-4)Glc = biological target: Neu5Ac(a2-6)Gal(b1-4)Glc
# Procedure, shortened: as §1
# [22] = biological target: Neu5Ac(a2-6)Gal(b1-4)GlcNAc
# Procedure, shortened: as §1
# [23] = biological target: Neu5Ac(a2-6)Gal(b1-4)GlcNAc(b1-2)Man
# Procedure, shortened: as §1
# [24] = biological target: Neu5Ac(a2-6)Gal(b1-4)GlcNAc(b1-2)Man(a1-3)Man(b1-4)GlcNAc(b1-4)GlcNAc
# Procedure, shortened: as §1
# [25] = biological target: Neu5Ac(a2-6)Gal(b1-4)GlcNAc(b1-2)Man(a1-3)[Gal(b1-4)GlcNAc(b1-2)Man(a1-6)]Man(b1-4)GlcNAc(b1-4)GlcNAc
# Procedure, shortened: as §1
# [26] = biological target: Neu5Ac(a2-6)Gal(b1-4)GlcNAc(b1-2)Man(a1-3)[GlcNAc(b1-2)Man(a1-6)]Man(b1-4)GlcNAc(b1-4)GlcNAc
# Procedure, shortened: as §1
# [27] = biological target: Neu5Ac(a2-6)Gal(b1-4)GlcNAc(b1-2)Man(a1-3)[GlcNAc(b1-4)][Neu5Ac(a2-6)Gal(b1-4)GlcNAc(b1-2)Man(a1-6)]Man(b1-4)GlcNAc(b1-4)GlcNAc
# Procedure, shortened: as §1
binder,measurement,setting,value
B1,glycan array binding signal (z-score),[1],0.074
same,glycan array binding signal (z-score),[2],0.169
same,glycan array binding signal (z-score),[3],-0.869
same,glycan array binding signal (z-score),[4],-1.38
same,glycan array binding signal (z-score),[5],-0.479
same,glycan array binding signal (z-score),[6],-0.217
same,glycan array binding signal (z-score),[7],0.412
same,glycan array binding signal (z-score),[8],0.387
same,glycan array binding signal (z-score),[9],-0.603
same,glycan array binding signal (z-score),[10],-0.159
same,glycan array binding signal (z-score),[11],-0.493
same,glycan array binding signal (z-score),[12],-0.362
same,glycan array binding signal (z-score),[13],0.32
same,glycan array binding signal (z-score),[14],0.541
same,glycan array binding signal (z-score),[15],-1.52
same,glycan array binding signal (z-score),Neu5Ac(a2-3)GalNAc,-0.396
same,glycan array binding signal (z-score),[16],0.6
same,glycan array binding signal (z-score),[17],0.806
same,glycan array binding signal (z-score),[18],-0.217
same,glycan array binding signal (z-score),[19],0.647
same,glycan array binding signal (z-score),[20],1.23
same,glycan array binding signal (z-score),Neu5Ac(a2-6)Gal,0.031
same,glycan array binding signal (z-score),[21],-1.16
same,glycan array binding signal (z-score),Neu5Ac(a2-6)Gal(b1-4)Glc,-1.39
same,glycan array binding signal (z-score),[22],-1.2
same,glycan array binding signal (z-score),[23],-1
same,glycan array binding signal (z-score),[24],-0.919
same,glycan array binding signal (z-score),[25],1.82
same,glycan array binding signal (z-score),[26],0.097
same,glycan array binding signal (z-score),[27],0.574

# Quoted at random: 2 entries already listed, in no set order.
binder,measurement,setting,value
B1,glycan array binding signal (z-score),[8],0.387
same,glycan array binding signal (z-score),[19],0.647
